Data as given in PubChem BioAssay AID1671195 (Yale University, 2021)

Test: 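Knockdowns that increase or decrease uptake of fluorescent LDL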 (primary screen)
System: human Huh7 hepatoma cells
Reagents: siRNA pool against human genes, 18 nM
Time to read-out: about 2 to 2.5 days of knockdown, then 8 h LDL uptake
Challenge: DiI-labelled LDL at 30 µg/ml for 8 h, in lipoprotein-deficient serum medium
Read-out: 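Fluorescent LDL signal imaged in cells, scaled to the plate median, robust z-score for each replicate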
Direction: robust z-score: higher = more LDL uptake after knockdown
Hit rule: 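a gene counts as active if at least two replicate z-scores exceed ±2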
The deposit covers about 22,000 reagents; shown is an unselected part. In the full data, about 1,510 (6.9%) are marked active. 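Active includes knockdowns raising or lowering LDL uptake; positive z-scores mean more uptake, negative mean less.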 Reagents against one gene are numbered here. No sequences are given here.

gene,reagent,"robust z-score, replicate 1","robust z-score, replicate 2","robust z-score, replicate 3",Outcome
ADAM21 (ADAM metallopeptidase domain 21),1,-0.629,-0.917,-0.978,inactive
BEND3 (BEN domain containing 3),1,3.19,2.99,2.5,active
CNTD1 (cyclin N-terminal domain containing 1),1,0.307,-0.4,-0.501,inactive
"NPRL2 (NPR2 like, GATOR1 complex subunit)",1,-1.35,-1.72,-0.806,inactive
AEBP1 (AE binding protein 1),1,-1.36,-1.06,-1.27,inactive
GRM3 (glutamate metabotropic receptor 3),1,0.421,-0.832,0.265,inactive
OR5A2 (olfactory receptor family 5 subfamily A member 2),1,-0.105,-0.64,0.422,inactive
HBS1L (HBS1 like translational GTPase),1,1.47,0.79,1.16,inactive
CRTC1 (CREB regulated transcription coactivator 1),1,-1.41,0.823,-2.12,inactive
OSTF1 (osteoclast stimulating factor 1),1,0.65,1.3,0.443,inactive
BCORL1 (BCL6 corepressor like 1),1,3.79,3.08,3.02,active
ANXA1 (annexin A1),1,0.245,0.052,0.478,inactive
TMEM94 (transmembrane protein 94),1,0.791,0.337,2.23,inactive
ARGLU1 (arginine and glutamate rich 1),1,-1.41,-1.97,-1.55,inactive
UBE3C (ubiquitin protein ligase E3C),1,-0.622,0.672,-0.235,inactive
PERP (p53 apoptosis effector related to PMP22),1,2.22,2.35,1.72,active
RHPN1 (rhophilin Rho GTPase binding protein 1),1,-0.265,0.845,0.624,inactive
LOC400968 (retired record),1,0.391,0.62,0.67,inactive
PADI2 (peptidyl arginine deiminase 2),1,-0.148,-1.1,-0.134,inactive
NTMT1 (N-terminal Xaa-Pro-Lys N-methyltransferase 1),1,-1.13,-1.28,-1.11,inactive
FBXO16 (F-box protein 16),1,0.197,0.0596,0.192,inactive
COL16A1 (collagen type XVI alpha 1 chain),1,1.13,1.75,1.58,inactive
NKIRAS2 (NFKB inhibitor interacting Ras like 2),1,0.497,0.401,1.46,inactive
FAM32A (family with sequence similarity 32 member A),1,1.81,1.7,1.73,inactive
HMGCR (3-hydroxy-3-methylglutaryl-CoA reductase),1,3,3.53,3.06,active
ECSIT (ECSIT signaling integrator),1,0.233,0.721,0.352,inactive
"ALKBH1 (alkB homolog 1, histone H2A dioxygenase)",1,-1.2,-0.888,-1.14,inactive
ZNF212 (zinc finger protein 212),1,-0.588,-0.188,-0.356,inactive
SLC7A7,1,-0.389,-0.933,-0.326,inactive
MGC16384 (retired record),1,-1.11,-1.03,-0.831,inactive
ZNF7 (zinc finger protein 7),1,-3.77,-3.11,-2.15,active
RHBDL3 (rhomboid like 3),1,-1.44,-1.57,-1.74,inactive
CHD8 (chromodomain helicase DNA binding protein 8),1,0.372,0.431,0.148,inactive
TOPBP1 (DNA topoisomerase II binding protein 1),1,-0.491,-0.681,-0.355,inactive
STAC3 (SH3 and cysteine rich domain 3),1,-0.0277,-0.108,-0.0292,inactive
TPPP2 (tubulin polymerization promoting protein family member 2),1,0.204,-0.352,-0.646,inactive
VKORC1L1 (vitamin K epoxide reductase complex subunit 1L1),1,2.19,2.69,1.9,active
TPRG1L (tumor protein p63 regulated 1 like),1,0.425,-0.943,-0.048,inactive
DUSP21 (dual specificity phosphatase 21),1,-1.85,-2.11,-2.19,active
IGSF10 (immunoglobulin superfamily member 10),1,-0.877,-1.01,-1.64,inactive
LOC440283 (retired record),1,-0.694,-0.4,-0.305,inactive
ZNF470 (zinc finger protein 470),1,0.0673,0.307,0.0658,inactive
MPC2,1,1.27,1.86,1.15,inactive
CAPN12 (calpain 12),1,0.967,1.29,3.09,inactive
OR14I1 (olfactory receptor family 14 subfamily I member 1),1,2.28,2.08,3.73,active
CCP110 (centriolar coiled-coil protein 110),1,0.493,0.465,-1.47,inactive
MAD2L1 (mitotic arrest deficient 2 like 1),1,1.49,0.953,1.7,inactive
RPSAP56 (ribosomal protein SA pseudogene 56),1,-2.45,-2.66,-2.89,active
SOCS1 (suppressor of cytokine signaling 1),1,1.15,-0.22,0.315,inactive
KDM3A (lysine demethylase 3A),1,-0.397,-0.347,-0.414,inactive
RPL22 (ribosomal protein L22),1,-0.434,1.65,-0.959,inactive
LY9 (lymphocyte antigen 9),1,0.547,-1.32,0.0785,inactive
LOC440947 (retired record),1,0.0828,0.122,0.0716,inactive
APOBEC3G (apolipoprotein B mRNA editing enzyme catalytic subunit 3G),1,0.879,0.953,0.964,inactive
LINC00174 (long independently transcribed non-coding RNA 174),1,-0.424,-0.436,-0.444,inactive
ENTPD1-AS1 (ENTPD1 antisense RNA 1),1,-0.218,0.547,0.166,inactive
LIPM (lipase family member M),1,-0.293,-0.308,0.181,inactive
GNAT3 (G protein subunit alpha transducin 3),1,0.476,2.16,0.753,inactive
DCAF5 (DDB1 and CUL4 associated factor 5),1,-1.06,-0.507,-1.21,inactive
SPPL2B (signal peptide peptidase like 2B),1,-0.246,0.394,-0.772,inactive
PPP1R14B (protein phosphatase 1 regulatory inhibitor subunit 14B),1,0.267,0.442,0.17,inactive
LOC440729 (retired record),1,-0.393,-0.641,-0.849,inactive
FOXF1 (forkhead box F1),1,-1.09,-0.684,-1.05,inactive
LOC389934 (retired record),1,1.63,1.35,0.571,inactive
NOL4L (nucleolar protein 4 like),1,-1.34,-1.32,-1.37,inactive
SSTR1 (somatostatin receptor 1),1,-0.122,-0.575,0.23,inactive
"ZDHHC8BP (ZDHHC8B, pseudogene)",1,0.779,1.19,-0.0693,inactive
FOXB2 (forkhead box B2),1,-1.7,-1.21,-1.43,inactive
CALCR (calcitonin receptor),1,4.1,1.75,3.15,active
JAM3 (junctional adhesion molecule 3),1,-0.902,-0.458,-0.761,inactive
KCNK7 (potassium two pore domain channel subfamily K member 7),1,0.189,0.13,0.718,inactive
GPATCH2 (G-patch domain containing 2),1,-0.432,-0.642,1.15,inactive
UMODL1 (uromodulin like 1),1,-0.408,-0.438,-0.494,inactive
MS4A6A (membrane spanning 4-domains A6A),1,-0.78,-1.15,-1.42,inactive
EEF1A1P47,1,1.08,0.284,0.475,inactive
ECE2 (endothelin converting enzyme 2),1,1.67,0.98,1.26,inactive
ECE2 (endothelin converting enzyme 2),2,0.481,0.0382,-0.135,inactive
FAM43B (family with sequence similarity 43 member B),1,-0.451,-0.569,-0.344,inactive
LOC389067 (retired record),1,-0.31,-0.532,-0.356,inactive
KSR2 (kinase suppressor of ras 2),1,-1.02,-0.847,-0.954,inactive
PPP1R11 (protein phosphatase 1 regulatory inhibitor subunit 11),1,-1.54,-0.52,-2.1,inactive
MAP4K3 (mitogen-activated protein kinase kinase kinase kinase 3),1,1.94,-0.25,0.531,inactive
DEFB136 (defensin beta 136),1,4.22,3.65,5.04,active
PRR15L (proline rich 15 like),1,0.0645,0.68,0.548,inactive
LNCRI (lncRNA radiation induced regulator of PLK1 and RAD51),1,-0.368,-1.42,-0.847,inactive
PRR19 (proline rich 19),1,-0.267,-0.304,-0.399,inactive
LINC00597 (long independently transcribed non-coding RNA 597),1,-0.782,-0.42,-0.525,inactive

Limited to “robust z-score, replicate 1”, for 8 of the entries above:
OR5A2 (olfactory receptor family 5 subfamily A member 2) = -0.105
HBS1L (HBS1 like translational GTPase) = 1.47
CRTC1 (CREB regulated transcription coactivator 1) = -1.41
OSTF1 (osteoclast stimulating factor 1) = 0.65
BCORL1 (BCL6 corepressor like 1) = 3.79
ANXA1 (annexin A1) = 0.245
TMEM94 (transmembrane protein 94) = 0.791
ARGLU1 (arginine and glutamate rich 1) = -1.41
